The text below walks through data of patent US10500164B2, “Nanoparticle-based combinatorial therapy” (The American University in Cairo, priority 2014, dated 2019).

The test system of the experiment is MCF-7 cells. Kind of experiment: MTT cytotoxicity assay on breast cancer cell line (MCF-7), 48 hrs incubation. Type of experiment: cell-based. As to conditions: free DOX or DOX part of DOX-NCs. The procedure: The in-vitro test was conducted using the MTT assay on breast cancer cell line (MCF-7) and human fibroblast cell line (1BR hTERT), which was performed as follows:
(1) Testing the cytotoxic effect of different concentrations (2, 4, 8, 10, and 12 μg/ml) of free DOX alone,
(2) Testing the cytotoxic effect of AgNPs and core-shell Ag/polymeric (PVA, PEG, and PVP) NPs using different concentrations (10, 20, 50, and 100 μg/ml), and
(3) Testing the cytotoxic effect of NPs-based combinatorial therapy of an individual type of DOX-Ag/polymeric NCs including DOX-loaded Ag/PVA NCs, DOX-loaded Ag/PEG NCs, and DOX-loaded Ag/PVP NCs using different concentrations (0.1, 0.2, and 1 μg/ml DOX).
To assess the cytotoxic effect of AgNPs and core-shell Ag/polymeric NPs, MCF-7 and 1BR hTERT cells were exposed separately to different concentrations of NPs for 48 hrs. AgNPs and core-shell Ag/polymeric (PVA, PEG and PVP) NPs decreased the cell viability of MCF-7 cells and 1BR hTERT cells (FIGS. 8A-D) in a dose-dependent manner. […] The IC50 of NPs in 1BR hTERT cells was 100 μg/mL for Ag NPs, Ag/PVA NPs, and Ag/PEG NPs, and 50 μg/mL for Ag/PVP NPs.
To investigate the cytotoxic effect of NPs-based combinatorial therapy, first, different concentrations of free DOX (2, 4, 8, 10, and 12 μg/mL) were tested on MCF-7 and 1BR hTERT cells, and cell viability was determined after 48 hrs. […]
In general terms: Formazan colour is commonly taken as a measure of viable cells.

Molecules are shown by their SMILES.

Regarding `COc1cccc2c1C(=O)c1c(O)c3c(c(O)c1C2=O)C[C@@](O)(C(=O)CO)C[C@@H]3O[C@H]1C[C@H](N)[C@H](O)[C@H](C)O1` [free DOX, Doxorubicin], the “IC50 (DOX concentration)” value amounted to 3.7 µg/mL.
